Assay results: publication PMC7904838
No constants are given. Whether binding was seen depends on the method and setting. Binding seen in cells or lysates may run through a third protein. Binding calls can cover weak binding; strength is not graded here.

Biological target: T1, HECTD3 (endogenous, rat liver) (rat (endogenous in rat liver)) (UniProt F1LVZ9)
T1 sequence: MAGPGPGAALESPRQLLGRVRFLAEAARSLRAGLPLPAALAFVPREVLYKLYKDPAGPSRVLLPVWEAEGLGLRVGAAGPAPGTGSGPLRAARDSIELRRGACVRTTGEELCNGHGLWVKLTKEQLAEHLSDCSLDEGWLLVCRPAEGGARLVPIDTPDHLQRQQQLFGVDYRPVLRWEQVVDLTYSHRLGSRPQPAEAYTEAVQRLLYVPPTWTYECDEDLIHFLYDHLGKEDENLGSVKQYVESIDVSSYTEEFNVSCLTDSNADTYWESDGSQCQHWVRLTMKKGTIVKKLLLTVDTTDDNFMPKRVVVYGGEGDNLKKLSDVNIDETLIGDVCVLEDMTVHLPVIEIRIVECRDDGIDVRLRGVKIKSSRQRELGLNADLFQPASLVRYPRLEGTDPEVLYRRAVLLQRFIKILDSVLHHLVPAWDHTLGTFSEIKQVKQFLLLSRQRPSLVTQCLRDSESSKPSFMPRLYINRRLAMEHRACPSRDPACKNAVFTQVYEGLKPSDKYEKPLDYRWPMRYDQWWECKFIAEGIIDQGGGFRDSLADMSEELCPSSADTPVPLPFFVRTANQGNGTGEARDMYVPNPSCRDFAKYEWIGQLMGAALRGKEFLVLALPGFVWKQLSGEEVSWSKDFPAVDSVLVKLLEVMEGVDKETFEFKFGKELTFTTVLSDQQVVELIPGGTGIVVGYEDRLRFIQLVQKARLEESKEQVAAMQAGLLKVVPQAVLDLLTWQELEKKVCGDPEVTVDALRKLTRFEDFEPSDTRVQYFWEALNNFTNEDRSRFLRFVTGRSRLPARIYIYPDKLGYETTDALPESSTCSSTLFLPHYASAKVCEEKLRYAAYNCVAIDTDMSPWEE
Assay: co-IP; rat liver tissue protein extracts (DCD model; CS and HOPE groups compared); IP with anti-HECTD3 antibody, protein A + G agarose beads, 4 °C; immunoblot

binding: binds
Substance: TRAF3 (endogenous, rat liver)
